Our source for the binding values is PMC6836472.

Sequences of proteins named here, by UniProt entry; tags and fusion partners are left off.
UniProt O14744: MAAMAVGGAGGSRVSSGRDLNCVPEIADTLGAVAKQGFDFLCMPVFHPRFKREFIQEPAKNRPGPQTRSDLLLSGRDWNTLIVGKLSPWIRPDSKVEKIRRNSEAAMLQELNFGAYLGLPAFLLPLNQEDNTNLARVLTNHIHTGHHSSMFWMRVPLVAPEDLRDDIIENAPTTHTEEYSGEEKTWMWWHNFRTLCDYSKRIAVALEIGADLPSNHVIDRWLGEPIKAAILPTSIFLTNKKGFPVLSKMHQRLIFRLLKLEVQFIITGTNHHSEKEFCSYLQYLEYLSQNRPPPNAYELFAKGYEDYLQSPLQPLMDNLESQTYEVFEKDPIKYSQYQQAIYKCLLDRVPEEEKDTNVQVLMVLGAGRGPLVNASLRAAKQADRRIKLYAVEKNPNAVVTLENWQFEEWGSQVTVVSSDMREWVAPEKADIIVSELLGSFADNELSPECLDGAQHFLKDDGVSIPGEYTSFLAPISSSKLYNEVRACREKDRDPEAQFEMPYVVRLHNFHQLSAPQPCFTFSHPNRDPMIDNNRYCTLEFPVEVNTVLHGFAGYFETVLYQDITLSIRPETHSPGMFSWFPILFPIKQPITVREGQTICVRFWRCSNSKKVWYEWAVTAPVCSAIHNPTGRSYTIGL
UniProt P01106: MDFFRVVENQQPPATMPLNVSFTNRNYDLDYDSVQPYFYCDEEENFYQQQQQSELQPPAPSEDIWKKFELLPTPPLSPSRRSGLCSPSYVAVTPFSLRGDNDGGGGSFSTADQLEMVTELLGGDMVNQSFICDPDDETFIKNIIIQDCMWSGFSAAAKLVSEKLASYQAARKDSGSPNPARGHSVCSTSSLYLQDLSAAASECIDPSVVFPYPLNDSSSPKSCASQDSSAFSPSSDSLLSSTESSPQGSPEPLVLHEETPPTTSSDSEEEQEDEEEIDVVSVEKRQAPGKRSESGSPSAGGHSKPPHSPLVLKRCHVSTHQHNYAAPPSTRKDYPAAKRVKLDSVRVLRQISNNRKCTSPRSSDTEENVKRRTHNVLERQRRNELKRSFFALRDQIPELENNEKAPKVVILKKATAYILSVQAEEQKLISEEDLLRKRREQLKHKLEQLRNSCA

Assay [1] addresses protein arginine methyltransferase 5 (human (endogenous in HD-MB03)) (UniProt O14744). The assay can be described thus: co-IP; 500 ug HD-MB03 protein lysate precleared with protein A-Sepharose; 8 ug MYC or PRMT5 antibody (control IgG) at 4 °C overnight; captured on protein A-Sepharose, washed with PBS; western blotting for the other protein. For orientation: A western blot detects proteins with antibodies after separation by electrophoresis.

Assay [2] addresses MYC (v-myc avian myelocytomatosis viral oncogene homolog) (human (endogenous in HD-MB03)) (UniProt P01106). The description is as above.

These are yes or no findings as the source states them, for the method shown. Binding seen in cells or lysates may run through a third protein. Some binding calls cover weakened binding; strength is not graded here.

In the case of “MYC (v-myc avian myelocytomatosis viral oncogene homolog) (from UniProt P01106 1-454)”, the binding result in assay [1] is reported as “binds”. Regarding “protein arginine methyltransferase 5 (from UniProt O14744 1-637) (enzyme)”, the binding result in assay [2] is recorded as “binds”.
